Source: patent publication US8742167B2, “Therapeutic formulations based on asiatic acid and selected salts thereof” (Shanghai Institute of Pharmaceutical Industry, priority 2008, dated 2014)
At least one structure is not confirmed: it was looked up by name or label, or the drawing left a doubt.

Tests used:
[1] = system: bleomycin-induced pulmonary fibrosis in rats; assay: Lung weight index of bleomycin-induced pulmonary fibrosis in rats; assay type: in vivo, SD rats; settings: starting on 2nd or 7th day; compared with the model group
Procedure: (§1) Male SD rats, body weight 250-300 g. The animals were anesthetized with 3% seconal, laid flat and fixed onto the operating table. The necks of the animals were disinfected with alcohol and cut to expose tracheae. A needle was inserted via the space between tracheal rings centripetally, and 5 mg/kg of bleomycin was injected. The rats were kept upright and rotated, in order to keep the solution uniformly distributed in the lungs. Then the incisions were sutured.
(§2) After the rats regained consciousness, they were randomly grouped. The animals were divided into (i) a group receiving administration on the next day after establishing the model and (ii) a group receiving administration at 7 days after the model was established. Included were 27, 9, and 3 mg/kg p.o.×28 d asiatic acid groups, 0.6 mg/kg p.o.×28 d dexamethasone group, 36 mg/kg p.o.×28 d asiaticoside group, model group, and blank group. Normal saline was administered for the model and blank groups. On the 28th day after asiatic acid and asiaticoside administration, survival and weight ratio of lungs were measured; pathological examination and serological examination were performed.
Effect of on lung weight index of bleomycin-induced pulmonary fibrosis in rats treated with asiatic acid Body weight and lung weight were measured after the rats were sacrificed. Lung weight ratio=(lung weight/body weight)×100%.

[2] = system: pulmonary fibrosis induced by bleomycin in rats; assay: Pathological analysis of lung (HE staining; collagen fiber and elastic fiber dual staining); assay type: in vivo, SD rats; settings: for collagen fiber and elastic fiber staining / lung pathology, HE staining: dexamethasone 0.6 mg/kg
Procedure: as §1, §2
The lung tissues were fixed in 10% formalin for 1 week. […] The thickness of sections was […]. Routine hematoxylin-eosin (HE) staining was performed. Dual special staining of collagen fibers and elastic fibers were conducted in order to detect the degree of fibrosis. The staining of the two groups of sections was observed and the results were as follows.

[3] = administration at 7 days after establishing model
[4] = administration on the next day after establishing model

C[C@@H]1C[C@H]2[C@@H]3CCC4=CC(=O)C=C[C@]4(C)[C@@]3(F)[C@@H](O)C[C@]2(C)[C@@]1(O)C(=O)CO [Dexamethasone, reference compound]
lung weight to body weight ratio [1]: relatively higher | collagen fiber and elastic fiber staining [2, 3]: significantly more serious than those of the group receiving dexamethasone on the next day after establishing model | lung pathology, HE staining [2, 3]: significantly more serious than those of the group receiving dexamethasone on the next day after establishing model | collagen fiber and elastic fiber staining [2, 4]: a little proliferation of collagen fibers and elastic fibers | lung pathology, HE staining [2, 4]: mild infiltration of inflammatory cells | pathological difference between dosing started on 2nd day and 7th day ([2]; dexamethasone group): pulmonary fibrosis was more significantly relieved when dosing was started on the 2nd day
